Results on 7 molecules are retold here after paper PMC9975939.

Numbering of substitutions follows the chain as printed. These are yes or no findings as the source states them, for the method shown. For part of these data: In cells and extracts the contact can be indirect. Some binding calls cover weakened binding; strength is not graded here. For part of these data: Sequences can lack the tags named with a protein.

Assay [1] concerns the target T1, NDP52 (human (endogenous in HeLa)), Q13137.
T1 chain: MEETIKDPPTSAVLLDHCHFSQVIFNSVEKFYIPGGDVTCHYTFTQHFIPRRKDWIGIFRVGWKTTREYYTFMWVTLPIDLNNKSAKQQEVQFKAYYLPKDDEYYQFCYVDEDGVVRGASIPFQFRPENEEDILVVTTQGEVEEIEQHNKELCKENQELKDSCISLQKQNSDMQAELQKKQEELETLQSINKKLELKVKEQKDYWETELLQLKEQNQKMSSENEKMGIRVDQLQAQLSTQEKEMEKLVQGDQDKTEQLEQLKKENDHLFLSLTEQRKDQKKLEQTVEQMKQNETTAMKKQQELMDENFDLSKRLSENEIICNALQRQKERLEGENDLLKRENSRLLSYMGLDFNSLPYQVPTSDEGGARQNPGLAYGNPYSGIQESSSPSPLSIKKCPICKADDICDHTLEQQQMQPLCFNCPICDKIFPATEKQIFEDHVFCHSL
Nature of the assay: cross-linking; disulphide-linked conjugates (DLC) formed in cells (HeLa, HeLa PentaKO with NDP52 transgenes, MEFs) treated with H2O2, PR-619, TrxR inhibitors, AO or RO or G-TPP with or without bafilomycin A1; lysis in RIPA with 50 mM N-ethylmaleimide; whole lysates or mitochondrial fractions; SDS-PAGE without (non-reduced) or with 2.5% β-mercaptoethanol, immunoblot. The settings on record: remark: other sources report otherwise. Background: In western blotting, separated proteins are transferred to a membrane and probed.

The target of assay [2] is T2, Flag-human NDP52 WT (human), Q13137.
T2 chain: T1 chain
Described as above. Particulars: remark: other sources report otherwise.

In assay [3] the target is His-Flag-NDP52 quadruple cysteine mutant (C18, C153, C163, C321 to Ala) (human) (UniProt Q13137). The description is as above.
Assay [4] concerns the target T3, GST-NDP52 wild-type (human), Q13137.
T3 chain: T1 chain
Kind of assay: cross-linking; recombinant NDP52 in 50 mM Tris, 150 mM NaCl pH 7.4 exposed to H2O2 (5 min); SDS-PAGE, immunoblot or CBB staining; disulphide-linked conjugates (DLC); both purified. Particulars: remark: other sources report otherwise.

Assay [5] addresses T4, His-Flag-NDP52 (human), Q13137.
T4 chain: T1 chain
Nature of the assay: native gel or EMSA; blue native PAGE of lysates (30 μg; 20 mM Bis-Tris pH 7.2, 40 mM NaCl, 10% glycerol, 0.5% NP-40) of HeLa PentaKO cells stably expressing NDP52 WT or Mut, immunoblot. The settings on record: remark: other sources report otherwise.

For assay [6] the target is unchanged. Kind of assay: cross-linking; disulphide-linked conjugates (DLC) formed in cells (HeLa, HeLa PentaKO with NDP52 transgenes, MEFs) treated with H2O2, PR-619, TrxR inhibitors, AO or RO or G-TPP with or without bafilomycin A1; lysis in RIPA with 50 mM N-ethylmaleimide; whole lysates or mitochondrial fractions; SDS-PAGE without (non-reduced) or with 2.5% β-mercaptoethanol, immunoblot. The settings on record: remark: other sources report otherwise.

The target in assay [7] is His-Flag-NDP52 (human) (UniProt Q13137). Nature of the assay: condition: only cells pre-treated with 500 nM MitoQ for 22 h; cross-linking; DLC in HeLa PentaKO + NDP52 WT cells pre-treated with 500 nM MitoQ for 22 h, then 4 μM/10 μM AO for 2 h with or without 400 nM Baf; immunoblot for NDP52.
Assay [8] shares this target. Nature of the assay: condition: only cells pre-treated with 20 μM S3QEL for 30 min; cross-linking; DLC in HeLa PentaKO + NDP52 WT cells pre-treated with 20 μM S3QEL for 30 min, then AO for 2 h; immunoblot for NDP52 in non-reducing conditions.
The target of assay [9] is GST-NDP52 wild-type (human) (UniProt Q13137). Nature of the assay: cross-linking; recombinant NDP52 in 50 mM Tris, 150 mM NaCl pH 7.4 exposed to AO; SDS-PAGE, immunoblot; disulphide-linked conjugates (DLC); both purified.

B1: NDP52, Q13137 1-446 (protein)
chain: T1 chain
For B1, the binding entry in assay [1] is given as “binds”.

B2: Flag-human NDP52 WT, Q13137 1-446 (protein)
chain: T1 chain
Regarding B2, the binding entry in assay [2] was “binds”.

B3: His-Flag-NDP52 quadruple cysteine mutant (C18, C153, C163, C321 to Ala) (protein, UniProt Q13137 1-446)
chain: T1 chain with C18A, C153A, C163A, C321A
For the molecule B3, the binding result in [3] is recorded as “no binding”.

B4: GST-NDP52 wild-type, Q13137 1-446 (protein)
chain: T1 chain
Turning to B4, the binding entry in assay [4] is “binds”.

B5: His-Flag-NDP52, Q13137 1-446 (protein)
chain: T1 chain
Turning to B5, the binding result in assay [5] and in assay [6] was “binds” throughout.

B6: His-Flag-NDP52 (protein, UniProt Q13137 1-446)
chain: T1 chain
On to B6, for which the binding entry with His-Flag-NDP52 (human) [7] and with His-Flag-NDP52 (human) [8] was “no binding” throughout.

B7: GST-NDP52 wild-type (protein, UniProt Q13137 1-446)
chain: T1 chain
As to B7, the binding entry in [9] is recorded as “no binding (condition: exposed to AO instead of H2O2)”.
